Results as given in PubChem BioAssay (Tox21).
Values joined by “and” are separate entries in the source; they are usually repeats but may differ in a detail not shown here. Equal entries are not always repeated. Inconclusive results, whose numbers are uncertain, are shown with a selection of clear calls. Potencies beside an inconclusive call are fits to weak or partial responses and may not hold up. The source holds several records for some structures; these can differ, active in one and inactive in another. Active and inactive are the calls of the source. The call rests on the fitted dose curve; in most records, active means well fitted curve in the direction sought with a large enough effect in the repeat runs; inconclusive means weak or mixed curves; inactive means no such curve, though single readings can be large; an effect the other way counts as inactive or inconclusive.

Amino acid sequences for entries named in this document (tags omitted). A change or cut given only in a name is not applied to a line headed by its entry.
UniProt O75469: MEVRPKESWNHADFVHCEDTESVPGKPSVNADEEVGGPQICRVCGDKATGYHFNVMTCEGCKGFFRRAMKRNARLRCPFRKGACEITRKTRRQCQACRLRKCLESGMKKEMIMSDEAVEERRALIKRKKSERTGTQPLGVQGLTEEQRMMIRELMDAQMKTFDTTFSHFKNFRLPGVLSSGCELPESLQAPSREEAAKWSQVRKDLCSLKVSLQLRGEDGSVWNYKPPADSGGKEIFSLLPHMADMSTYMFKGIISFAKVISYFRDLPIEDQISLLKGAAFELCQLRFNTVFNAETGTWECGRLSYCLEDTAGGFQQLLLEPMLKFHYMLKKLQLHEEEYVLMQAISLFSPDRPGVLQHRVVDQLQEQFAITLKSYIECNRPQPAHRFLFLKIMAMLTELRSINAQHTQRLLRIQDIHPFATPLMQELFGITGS
UniProt P10635, whole entry, looked up: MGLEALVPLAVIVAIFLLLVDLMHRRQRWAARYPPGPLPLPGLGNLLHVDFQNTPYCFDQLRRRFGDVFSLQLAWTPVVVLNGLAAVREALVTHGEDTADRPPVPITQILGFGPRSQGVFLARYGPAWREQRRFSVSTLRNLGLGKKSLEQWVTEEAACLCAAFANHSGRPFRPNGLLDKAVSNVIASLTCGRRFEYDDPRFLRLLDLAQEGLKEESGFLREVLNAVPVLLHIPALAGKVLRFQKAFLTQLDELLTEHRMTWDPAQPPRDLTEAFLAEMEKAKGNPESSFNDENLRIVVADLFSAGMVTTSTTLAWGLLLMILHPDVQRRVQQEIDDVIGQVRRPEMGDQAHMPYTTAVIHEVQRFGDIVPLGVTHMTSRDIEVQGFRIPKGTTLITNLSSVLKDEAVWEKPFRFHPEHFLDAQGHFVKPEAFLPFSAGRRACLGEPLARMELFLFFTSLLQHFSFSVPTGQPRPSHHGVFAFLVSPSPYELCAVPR
UniProt P33261, whole entry, looked up: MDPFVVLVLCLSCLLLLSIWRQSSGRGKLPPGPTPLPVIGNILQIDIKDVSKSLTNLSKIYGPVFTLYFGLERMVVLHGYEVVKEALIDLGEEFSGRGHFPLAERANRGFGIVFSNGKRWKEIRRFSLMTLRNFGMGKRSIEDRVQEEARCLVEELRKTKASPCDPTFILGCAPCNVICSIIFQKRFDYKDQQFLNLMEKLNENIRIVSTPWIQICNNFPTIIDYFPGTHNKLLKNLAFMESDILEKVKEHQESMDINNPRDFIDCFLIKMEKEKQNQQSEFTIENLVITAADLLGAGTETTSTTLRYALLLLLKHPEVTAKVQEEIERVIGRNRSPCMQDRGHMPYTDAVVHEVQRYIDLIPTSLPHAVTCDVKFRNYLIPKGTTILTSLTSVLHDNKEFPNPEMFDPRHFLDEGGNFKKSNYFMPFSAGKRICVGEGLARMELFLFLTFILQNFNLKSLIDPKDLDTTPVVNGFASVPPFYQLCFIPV

These molecules were tested against Nuclear receptor subfamily 1 group I member 2 (Homo sapiens) (UniProt O75469) (assay: Human pregnane X receptor (PXR) small molecule agonists, qHTS assay (AID 1346982; further: nearly all actives have a fitted effect of over 35% in size; on activation: on the % scale 0 is the no-effect control and ±100 the full control effect)). Conditions: PXR-Luc HepG2, CYP3A4 luciferase reporter, 24 h; series mostly up to 92.4 µM; activation: at the top concentration.
Outline: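 Cells: HepG2 stably carrying PXR-Luc. Medium held 5% charcoal-stripped FBS. Compounds in DMSO added after 5 hr plating, incubated 24 hr, then luminescence quantified with ONE-Glo.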
Potency means the concentration at half of the fitted maximal effect.

Row | SMILES | Potency | activation
1 | CCN(CCO)CCO | inconclusive: 54.5 µM [activator, partial curve] | 
2 | O=NN1CCCC1 | inactive | 
3 | Nc1ccccc1C(=O)OCC(O)CO (stereo unspecified) |  | inactive: 1.94% [at 42.5 µM]
4 | O=Cc1ccc2c(c1)OCO2 | inconclusive: 67.7 µM [activator, partial curve] | 
5 | CCOP(=O)(SC(C)CC)N1CCSC1=O (stereo unspecified) | inconclusive: 77 µM [activator, single point] | 
6 | O=C(Cl)c1ccccc1 |  | inactive: -5.69%
7 | O=S(=O)(c1ccc(Cl)cc1)c1cc(Cl)c(Cl)cc1Cl | active: 30.6 µM | 
8 | C=C1CC[C@@]2(O)[C@H]3Cc4ccc(O)c5c4[C@@]2(CCN3CC2CC2)[C@H]1O5 |  | inactive: -7.2% [at 42.5 µM]
9 | CC(C)(C)OOC(C)(C)CCC(C)(C)OOC(C)(C)C |  | inactive: -0.825%
10 | O=C(NC(=O)c1ccccc1Cl)Nc1ccc(OC(F)(F)F)cc1 | inconclusive: 0.969 µM [activator, partial curve] | 
11 | Cc1cc(C)nc(Nc2ccccc2)n1 | inconclusive: 77 µM [activator, single point] | 
12 | CCCCC1C(=O)NC(=O)N(C2CCCCC2)C1=O (stereo unspecified) |  | inactive: -0.8% [at 42.5 µM]
13 | CCc1cnc(C2=NC(C)(C(C)C)C(=O)N2)c(C(=O)O)c1 (stereo unspecified) | inactive | 
14 | CCCN(CC1CC1)c1c([N+](=O)[O-])cc(C(F)(F)F)cc1[N+](=O)[O-] | active: 19.3 µM | 
15 | O=C(O)C(Cl)Br (stereo unspecified) |  | inactive: 11.7%
16 | O=C(CBr)Nc1ccc(Cl)cc1C(=O)c1ccccc1F | inconclusive: 23.7 µM [activator, partial curve] | 
17 | CC1C=[C-]C=C1.[C-]#[O+].[C-]#[O+].[C-]#[O+].[Mn] | active: 54.5 µM and active: 19.2 µM | 
18 | CCCC[N+]1(C)CCCCC1 | inactive | 
19 | CCCCCON=O |  | inactive: -14.2%
20 | C#CCOC(C(=O)OCCN(C)C)(c1ccccc1)c1ccccc1 | inconclusive: 33.5 µM [activator, single point] | 
21 | CCC1(CC)C(=O)N=C(O)NC1=O | inconclusive: 61.1 µM [activator, partial curve] | 
22 | NC(=S)Nc1ccccc1 | inconclusive: 62.1 µM [activator, single point] | 
23 | CCCCCCCCCC(=O)O[C@H]1CC[C@H]2[C@@H]3CCC4=CC(=O)CC[C@@H]4[C@H]3CC[C@]12C | inconclusive: 18.8 µM [activator, partial curve, poor fit] | 
24 | c1ccoc1 |  | inactive: 10.7%
25 | BrCCCBr |  | inactive: -0.858%
26 | Cc1cc(C)cc(OP(=O)(Oc2cc(C)cc(C)c2)Oc2cc(C)cc(C)c2)c1 | active: 8.77 µM | 
27 | CC[C@@H](CO)NC(=O)[C@@H]1C=C2c3cccc4c3c(cn4C)C[C@H]2N(C)C1 | inconclusive: 23.7 µM [activator, partial curve] | 
28 | CC(C)(C1CCC(O)CC1)C1CCC(O)CC1 (stereo unspecified) | inconclusive: 61.1 µM [activator, single point] | 

Rewritten as tab-separated lines: entries from further up
Row	SMILES	Potency	activation
20	C#CCOC(C(=O)OCCN(C)C)(c1ccccc1)c1ccccc1	inconclusive: 33.5 µM [activator, single point]	
22	NC(=S)Nc1ccccc1	inconclusive: 62.1 µM [activator, single point]	

What follows are molecules tested against Cytochrome P450 2D6 (Homo sapiens) (UniProt P10635) (assay: Cytochrome P450 Family 2 Subfamily D Member 6 (CYP2D6) small molecule antagonists: luciferase reporter qHTS assay (AID 1671196; further: nearly all actives have a fitted effect of over 50% in size)). Conditions: P450-Glo CYP2D6 enzyme assay, luciferin luminescence, 1 h; series mostly up to 115 µM; activity change, negative = inhibition: at the top concentration.
Outline: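 Enzyme and proluciferin substrate were first combined with test chemical for 10 min at room temperature. Adding NADPH regeneration solution started a 1 h reaction, stopped with luciferin detection reagent and read by luminescence 20 min later.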

Row | SMILES | Potency
29 | COCCl | inconclusive: 22.6 µM [inhibitor, partial curve, poor fit]
30 | O=S(=O)(c1ccc(Cl)cc1)c1cc(Cl)c(Cl)cc1Cl | inconclusive: 35.6 µM [inhibitor, partial curve, poor fit]
31 | CCc1cnc(C2=NC(C)(C(C)C)C(=O)N2)c(C(=O)O)c1 (stereo unspecified) | inconclusive: 63.2 µM [inhibitor, partial curve]
32 | CC(C)OS(C)(=O)=O | active: 40.2 µM
33 | NN=C(N)N | inconclusive: 63.3 µM [inhibitor, partial curve]
34 | O=C(O)C(Cl)Br (stereo unspecified) | inconclusive: 50.9 µM [inhibitor, partial curve, poor fit]
35 | CCCC[N+]1(C)CCCCC1 | inconclusive: 19.9 µM [inhibitor, full curve]
36 | O=C1CC(=O)NC(=O)N1 | inconclusive: 89.4 µM [inhibitor, partial curve, poor fit]
37 | COc1cccc(C(=O)NN(C(=O)c2cc(C)cc(C)c2)C(C)(C)C)c1C | active: 39.9 µM
38 | O=c1[nH]c2ccccc2o1 | inconclusive: 40 µM [inhibitor, partial curve]

Each molecule was assayed against Cytochrome P450 2C19 (Homo sapiens) (UniProt P33261) (assay: Cytochrome P450 Family 2 Subfamily C Member 19 (CYP2C19) small molecule antagonists: luciferase reporter qHTS assay (AID 1671197; further: nearly all actives have a fitted effect of over 65% in size; on activity change, negative = inhibition: on the % scale 0 is the no-effect control and ±100 the full control effect)). Conditions: P450-Glo CYP2C19 enzyme, luciferin luminescence, 1 h; series mostly up to 115 µM; activity change, negative = inhibition: at the top concentration.
Outline: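 Light output is proportional to CYP2C19 activity: proluciferin substrate is converted to luciferin, then detected by a luciferin detection reagent that also stops the 1 h, 37C NADPH-driven reaction. Ketoconazole serves as positive control.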

Row | SMILES | Potency | activity change, negative = inhibition
39 | CN(C)C(=O)C(c1ccccc1)c1ccccc1 | inconclusive: 78.5 µM [inhibitor, single point] | 
40 | O=C(CBr)Nc1ccc(Cl)cc1C(=O)c1ccccc1F | active: 1.95 µM | 
41 | O=S(=O)(O)F | inconclusive: 99.1 µM [inhibitor, single point] | 
42 | O=C(NC(=O)c1c(F)cccc1F)Nc1ccc(Cl)cc1 | inconclusive: 79.6 µM [inhibitor, single point] | 
43 | Nc1nc(N)nc(Cl)n1 |  | inactive: -2.73%
44 | CC(O)CCO (stereo unspecified) | inactive and active: 71 µM | 
45 | COc1cccc(C(=O)NN(C(=O)c2cc(C)cc(C)c2)C(C)(C)C)c1C | active: 3.56 µM | 
46 | O=c1[nH]c2ccccc2o1 | inconclusive: 89.6 µM [inhibitor, single point] | 
